{"source": "PubChem BioAssay AID1259254 (NCATS, 2017)", "purpose": "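Finding genes that stop cells copying their DNA twice in one cycle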 (primary screen)", "cell system": "human HCT116 colorectal cancer cells", "reagent": "single siRNA against human genes", "timing": "3 days", "read-out": "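Nuclei stained with Hoechst and imaged; cell-cycle phase assigned by DNA content; G2 share scaled per plate, non-targeting siRNA 0%, GMNN siRNA 100%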", "direction": "G2 robust z-score: higher = more G2 cells, more excess DNA replication", "hit rule": "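An siRNA counts as active if its G2 robust z-score lies at least 5 MADs above the screen median; here such calls match roughly 38% of GMNN control or more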", "note": "Shown is a random part of about 59,000 deposited reagents. In the full data, about 1,550 (2.6%) got an active call. 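G2 share is only a proxy for re-replication; each gene was hit by three separate siRNAs, and active genes were retested.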 Entries without a mark were called inactive. Not all columns of the deposit are shown. Not given: the amount of reagent."}
{"Gene":"MBOAT7","PubChem SID":"SID160748684","G2 robust z-score":-0.652}
{"Gene":"MBOAT7","PubChem SID":"SID160748685","G2 robust z-score":4}
{"Gene":"MBOAT7","PubChem SID":"SID160748686","G2 robust z-score":-0.0811}
{"Gene":"ZNF77 (zinc finger protein 77)","PubChem SID":"SID160746838","G2 robust z-score":-0.153}
{"Gene":"ZNF77 (zinc finger protein 77)","PubChem SID":"SID160746840","G2 robust z-score":-0.371}
{"Gene":"ZNF77 (zinc finger protein 77)","PubChem SID":"SID160746841","G2 robust z-score":0.0683}
{"Gene":"MYF6 (myogenic factor 6)","PubChem SID":"SID160777644","G2 robust z-score":0.256}
{"Gene":"MYF6 (myogenic factor 6)","PubChem SID":"SID160777645","G2 robust z-score":1.25}
{"Gene":"MYF6 (myogenic factor 6)","PubChem SID":"SID160777646","G2 robust z-score":-1.36}
{"Gene":"GPX4 (glutathione peroxidase 4)","PubChem SID":"SID160773957","G2 robust z-score":-0.306}
{"Gene":"GPX4 (glutathione peroxidase 4)","PubChem SID":"SID160773967","G2 robust z-score":-0.893}
{"Gene":"GPX4 (glutathione peroxidase 4)","PubChem SID":"SID160773977","G2 robust z-score":1.03}
{"Gene":"ZER1 (zyg-11 related cell cycle regulator)","PubChem SID":"SID160728434","G2 robust z-score":2.68}
{"Gene":"ZER1 (zyg-11 related cell cycle regulator)","PubChem SID":"SID160728435","G2 robust z-score":1.11}
{"Gene":"ZER1 (zyg-11 related cell cycle regulator)","PubChem SID":"SID160728436","G2 robust z-score":-0.268}
{"Gene":"CLPTM1 (CLPTM1 regulator of GABA type A receptor forward trafficking)","PubChem SID":"SID160732379","G2 robust z-score":-0.0723}
{"Gene":"CLPTM1 (CLPTM1 regulator of GABA type A receptor forward trafficking)","PubChem SID":"SID160744720","G2 robust z-score":-0.413}
{"Gene":"CLPTM1 (CLPTM1 regulator of GABA type A receptor forward trafficking)","PubChem SID":"SID160744741","G2 robust z-score":-0.6}
{"Gene":"FCGRT (Fc gamma receptor and transporter)","PubChem SID":"SID160764528","G2 robust z-score":0.944}
{"Gene":"FCGRT (Fc gamma receptor and transporter)","PubChem SID":"SID160764536","G2 robust z-score":-0.917}
{"Gene":"FCGRT (Fc gamma receptor and transporter)","PubChem SID":"SID160764546","G2 robust z-score":0.0214}
{"Gene":"THNSL1 (threonine synthase like 1)","PubChem SID":"SID160749725","G2 robust z-score":-0.618}
{"Gene":"THNSL1 (threonine synthase like 1)","PubChem SID":"SID160749726","G2 robust z-score":-1.18}
{"Gene":"THNSL1 (threonine synthase like 1)","PubChem SID":"SID160749727","G2 robust z-score":-0.531}
